Results on 16 targets are retold here after the supplement of paper PMC12067093, “Discovery and optimisation of a covalent ligand for TRIM25 and its application to targeted protein ubiquitination” (Chemical Science, 2025).

The chains behind the UniProt entries cited, without tags or fusion partners. Where a name states a change or a piece, a line headed by the entry shows the natural chain unless it says otherwise.
UniProt Q9NZJ4: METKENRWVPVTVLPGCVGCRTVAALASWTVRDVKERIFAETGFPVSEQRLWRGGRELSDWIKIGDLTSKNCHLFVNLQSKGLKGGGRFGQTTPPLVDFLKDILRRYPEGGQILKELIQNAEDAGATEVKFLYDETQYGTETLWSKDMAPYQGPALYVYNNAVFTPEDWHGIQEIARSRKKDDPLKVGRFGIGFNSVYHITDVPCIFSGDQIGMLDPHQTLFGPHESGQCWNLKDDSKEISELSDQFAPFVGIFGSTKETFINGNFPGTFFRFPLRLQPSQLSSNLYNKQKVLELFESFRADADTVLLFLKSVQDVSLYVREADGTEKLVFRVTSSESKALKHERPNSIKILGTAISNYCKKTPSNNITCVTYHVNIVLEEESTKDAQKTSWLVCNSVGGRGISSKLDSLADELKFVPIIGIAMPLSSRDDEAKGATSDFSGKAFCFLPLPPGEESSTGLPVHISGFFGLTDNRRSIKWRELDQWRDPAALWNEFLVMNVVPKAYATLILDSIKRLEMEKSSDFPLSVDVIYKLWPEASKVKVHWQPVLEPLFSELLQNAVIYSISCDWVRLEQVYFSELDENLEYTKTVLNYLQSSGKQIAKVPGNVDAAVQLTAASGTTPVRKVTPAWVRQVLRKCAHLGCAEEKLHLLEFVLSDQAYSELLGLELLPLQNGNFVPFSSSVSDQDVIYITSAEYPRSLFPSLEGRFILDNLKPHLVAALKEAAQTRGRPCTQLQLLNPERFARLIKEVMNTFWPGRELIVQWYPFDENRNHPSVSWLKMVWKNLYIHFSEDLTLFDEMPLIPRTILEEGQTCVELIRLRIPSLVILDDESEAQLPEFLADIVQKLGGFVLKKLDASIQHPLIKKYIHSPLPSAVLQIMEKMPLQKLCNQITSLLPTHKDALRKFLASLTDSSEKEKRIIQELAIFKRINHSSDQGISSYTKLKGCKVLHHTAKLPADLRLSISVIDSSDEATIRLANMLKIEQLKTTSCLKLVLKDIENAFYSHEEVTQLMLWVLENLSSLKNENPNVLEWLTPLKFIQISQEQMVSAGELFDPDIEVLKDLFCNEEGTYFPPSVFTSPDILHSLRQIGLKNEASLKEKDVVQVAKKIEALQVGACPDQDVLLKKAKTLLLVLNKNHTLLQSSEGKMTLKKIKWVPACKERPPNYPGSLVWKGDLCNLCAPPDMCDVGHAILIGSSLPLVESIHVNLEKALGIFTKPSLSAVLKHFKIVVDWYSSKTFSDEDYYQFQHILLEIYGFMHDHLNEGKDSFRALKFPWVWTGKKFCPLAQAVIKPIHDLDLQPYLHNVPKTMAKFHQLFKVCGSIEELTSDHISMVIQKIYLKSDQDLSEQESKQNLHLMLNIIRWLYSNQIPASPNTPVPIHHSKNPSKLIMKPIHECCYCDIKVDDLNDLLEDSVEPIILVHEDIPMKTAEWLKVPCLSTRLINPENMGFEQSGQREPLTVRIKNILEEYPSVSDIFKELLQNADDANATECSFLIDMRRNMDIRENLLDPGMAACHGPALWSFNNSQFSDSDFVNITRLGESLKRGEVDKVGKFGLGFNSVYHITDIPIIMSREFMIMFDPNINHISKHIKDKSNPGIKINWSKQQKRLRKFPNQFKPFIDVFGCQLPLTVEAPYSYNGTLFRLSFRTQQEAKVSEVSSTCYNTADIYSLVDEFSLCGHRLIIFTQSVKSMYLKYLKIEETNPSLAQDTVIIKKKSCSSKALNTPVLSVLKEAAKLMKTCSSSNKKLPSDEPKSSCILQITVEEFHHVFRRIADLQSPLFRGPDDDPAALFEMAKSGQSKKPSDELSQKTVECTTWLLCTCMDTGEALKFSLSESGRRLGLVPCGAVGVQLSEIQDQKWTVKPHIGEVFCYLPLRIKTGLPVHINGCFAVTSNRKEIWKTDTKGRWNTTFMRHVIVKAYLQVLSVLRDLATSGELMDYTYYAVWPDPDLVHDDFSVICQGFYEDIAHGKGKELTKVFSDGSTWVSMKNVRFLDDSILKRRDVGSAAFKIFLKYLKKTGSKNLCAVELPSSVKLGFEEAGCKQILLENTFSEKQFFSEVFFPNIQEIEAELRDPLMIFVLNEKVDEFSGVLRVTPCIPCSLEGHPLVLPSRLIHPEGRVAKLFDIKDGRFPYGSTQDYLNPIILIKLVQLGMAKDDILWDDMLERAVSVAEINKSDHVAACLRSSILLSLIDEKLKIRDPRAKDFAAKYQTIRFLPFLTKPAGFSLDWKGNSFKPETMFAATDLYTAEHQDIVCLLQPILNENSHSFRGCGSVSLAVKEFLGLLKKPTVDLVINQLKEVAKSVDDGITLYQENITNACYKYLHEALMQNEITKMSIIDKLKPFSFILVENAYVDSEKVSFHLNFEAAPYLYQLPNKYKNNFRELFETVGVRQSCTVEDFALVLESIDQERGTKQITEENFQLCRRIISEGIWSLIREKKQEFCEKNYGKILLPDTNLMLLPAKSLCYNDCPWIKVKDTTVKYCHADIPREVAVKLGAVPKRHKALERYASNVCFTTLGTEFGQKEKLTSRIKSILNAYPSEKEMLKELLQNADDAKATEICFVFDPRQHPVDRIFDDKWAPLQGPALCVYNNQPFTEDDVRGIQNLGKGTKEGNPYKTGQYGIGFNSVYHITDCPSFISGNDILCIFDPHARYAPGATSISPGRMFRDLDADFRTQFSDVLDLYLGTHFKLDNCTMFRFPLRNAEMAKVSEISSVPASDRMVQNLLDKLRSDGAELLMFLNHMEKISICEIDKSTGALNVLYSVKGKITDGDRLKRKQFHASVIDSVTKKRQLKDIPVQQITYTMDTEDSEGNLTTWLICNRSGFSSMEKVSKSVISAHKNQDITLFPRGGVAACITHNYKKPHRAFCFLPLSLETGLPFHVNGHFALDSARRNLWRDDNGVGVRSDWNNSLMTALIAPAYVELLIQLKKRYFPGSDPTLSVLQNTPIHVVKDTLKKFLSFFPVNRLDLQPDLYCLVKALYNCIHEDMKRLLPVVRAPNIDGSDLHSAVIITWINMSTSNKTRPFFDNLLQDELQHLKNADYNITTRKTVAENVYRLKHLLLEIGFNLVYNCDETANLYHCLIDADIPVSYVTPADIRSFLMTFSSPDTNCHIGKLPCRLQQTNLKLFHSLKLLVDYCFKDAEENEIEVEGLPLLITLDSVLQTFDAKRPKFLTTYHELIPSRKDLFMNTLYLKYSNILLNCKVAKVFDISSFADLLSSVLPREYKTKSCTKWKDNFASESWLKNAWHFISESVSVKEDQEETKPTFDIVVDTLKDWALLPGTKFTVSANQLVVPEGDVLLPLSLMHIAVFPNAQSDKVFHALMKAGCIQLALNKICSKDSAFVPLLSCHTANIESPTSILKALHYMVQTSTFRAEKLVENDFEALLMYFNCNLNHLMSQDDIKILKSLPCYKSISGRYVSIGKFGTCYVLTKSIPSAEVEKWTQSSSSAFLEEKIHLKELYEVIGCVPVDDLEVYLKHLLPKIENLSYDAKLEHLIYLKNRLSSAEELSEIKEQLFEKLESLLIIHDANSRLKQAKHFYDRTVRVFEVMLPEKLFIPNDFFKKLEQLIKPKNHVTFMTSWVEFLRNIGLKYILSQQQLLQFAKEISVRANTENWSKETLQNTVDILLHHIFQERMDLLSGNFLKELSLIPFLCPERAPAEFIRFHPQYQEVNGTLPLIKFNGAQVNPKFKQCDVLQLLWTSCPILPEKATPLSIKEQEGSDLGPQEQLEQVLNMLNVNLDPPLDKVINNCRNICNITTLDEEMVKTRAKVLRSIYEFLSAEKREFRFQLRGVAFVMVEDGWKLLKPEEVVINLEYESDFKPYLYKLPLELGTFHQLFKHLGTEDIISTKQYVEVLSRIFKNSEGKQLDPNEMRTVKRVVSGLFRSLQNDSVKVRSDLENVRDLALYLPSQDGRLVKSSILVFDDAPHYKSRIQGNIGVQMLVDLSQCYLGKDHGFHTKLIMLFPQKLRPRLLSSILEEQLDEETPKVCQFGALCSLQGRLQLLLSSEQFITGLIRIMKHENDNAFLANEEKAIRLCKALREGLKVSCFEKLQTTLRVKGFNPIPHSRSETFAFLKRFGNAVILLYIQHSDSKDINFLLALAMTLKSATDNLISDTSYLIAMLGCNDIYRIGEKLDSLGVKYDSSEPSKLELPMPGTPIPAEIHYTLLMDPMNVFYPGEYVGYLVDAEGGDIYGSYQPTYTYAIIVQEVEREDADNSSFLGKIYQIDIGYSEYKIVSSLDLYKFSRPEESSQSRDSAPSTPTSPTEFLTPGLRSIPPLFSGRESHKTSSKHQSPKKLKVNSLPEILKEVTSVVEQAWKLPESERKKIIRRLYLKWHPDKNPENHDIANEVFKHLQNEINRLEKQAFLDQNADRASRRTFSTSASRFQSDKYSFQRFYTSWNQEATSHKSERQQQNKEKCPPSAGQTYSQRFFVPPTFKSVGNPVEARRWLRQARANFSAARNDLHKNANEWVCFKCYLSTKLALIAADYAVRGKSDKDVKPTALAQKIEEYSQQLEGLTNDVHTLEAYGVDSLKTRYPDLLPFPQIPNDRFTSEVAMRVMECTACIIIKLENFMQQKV
UniProt P19793: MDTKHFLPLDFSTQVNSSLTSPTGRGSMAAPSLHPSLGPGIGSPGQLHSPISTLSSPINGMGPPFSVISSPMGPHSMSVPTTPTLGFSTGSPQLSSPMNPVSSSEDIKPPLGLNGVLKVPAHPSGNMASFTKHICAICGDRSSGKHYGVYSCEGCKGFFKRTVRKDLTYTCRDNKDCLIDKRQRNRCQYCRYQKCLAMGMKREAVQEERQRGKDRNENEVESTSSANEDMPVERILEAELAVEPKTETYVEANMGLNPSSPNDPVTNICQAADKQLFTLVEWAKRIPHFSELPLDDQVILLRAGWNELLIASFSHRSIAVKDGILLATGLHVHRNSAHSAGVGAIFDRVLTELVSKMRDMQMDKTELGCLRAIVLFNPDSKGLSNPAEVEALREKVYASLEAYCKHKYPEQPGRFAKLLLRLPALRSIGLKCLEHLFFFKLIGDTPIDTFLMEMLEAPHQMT
UniProt Q9Y3I0: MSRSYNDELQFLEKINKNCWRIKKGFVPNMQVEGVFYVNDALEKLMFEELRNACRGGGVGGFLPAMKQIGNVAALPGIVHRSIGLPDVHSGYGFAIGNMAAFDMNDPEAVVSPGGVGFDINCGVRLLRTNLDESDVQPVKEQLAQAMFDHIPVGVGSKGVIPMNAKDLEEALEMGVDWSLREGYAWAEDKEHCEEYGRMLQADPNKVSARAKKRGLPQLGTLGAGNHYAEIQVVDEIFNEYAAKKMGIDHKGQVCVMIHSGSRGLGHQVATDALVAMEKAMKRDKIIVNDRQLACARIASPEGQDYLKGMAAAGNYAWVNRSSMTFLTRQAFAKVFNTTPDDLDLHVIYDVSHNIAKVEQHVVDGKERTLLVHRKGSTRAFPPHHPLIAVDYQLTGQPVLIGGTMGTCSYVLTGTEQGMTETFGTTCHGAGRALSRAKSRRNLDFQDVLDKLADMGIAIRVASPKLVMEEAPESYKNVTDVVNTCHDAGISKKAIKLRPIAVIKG
UniProt Q96T51: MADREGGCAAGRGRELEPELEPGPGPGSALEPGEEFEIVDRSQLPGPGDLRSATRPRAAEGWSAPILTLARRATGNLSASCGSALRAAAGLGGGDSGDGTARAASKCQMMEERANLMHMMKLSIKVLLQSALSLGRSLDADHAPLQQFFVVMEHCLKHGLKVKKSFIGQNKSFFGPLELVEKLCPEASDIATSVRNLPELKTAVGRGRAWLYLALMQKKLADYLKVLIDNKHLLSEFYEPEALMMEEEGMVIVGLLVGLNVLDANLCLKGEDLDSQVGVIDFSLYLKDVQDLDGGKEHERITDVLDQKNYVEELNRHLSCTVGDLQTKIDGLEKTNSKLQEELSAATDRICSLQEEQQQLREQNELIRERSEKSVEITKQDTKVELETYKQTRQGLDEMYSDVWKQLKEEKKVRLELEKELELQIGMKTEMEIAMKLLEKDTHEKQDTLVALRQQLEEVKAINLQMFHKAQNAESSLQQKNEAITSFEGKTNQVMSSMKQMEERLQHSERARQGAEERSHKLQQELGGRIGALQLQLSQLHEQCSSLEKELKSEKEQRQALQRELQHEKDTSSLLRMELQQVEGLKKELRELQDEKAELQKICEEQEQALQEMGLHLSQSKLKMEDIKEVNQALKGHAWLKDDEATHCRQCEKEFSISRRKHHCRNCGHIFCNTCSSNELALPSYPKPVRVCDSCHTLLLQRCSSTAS

Some of the results follow.
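Also: competitive chemoproteomic profiling in live THP-1 cells with an iodoacetamide desthiobiotin (IA-DTB) probe, comparing probe-labelled peptide intensities in compound-treated cells against DMSO-treated controls.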

Compound in the test: CC1Cc2ccccc2N1C(=O)C1CCCN(C1)C(=O)CCl (mixture of isomers) [TRIM25 ligand 11 (diastereomer mixture)]
In words: probe-labelled cysteine peptide fold change vs DMSO (competition) (log2 fold change); higher = less target engagement (more negative = stronger competition). To be noted: 10 µM; THP-1; incubation time: 4 h.
“SACS_Q9NZJ4_1160_WVPACK (UniProt Q9NZJ4)”: the “probe-labelled cysteine peptide fold change” value was -0.0572.

For the target “RXRA_P19793_195_CLAMGMK (UniProt P19793)”, the “probe-labelled cysteine peptide fold change” value was -0.0191.

Regarding “RPTOR_Q8N122_617_CAAVFALGTFVGNSAER (UniProt Q8N122)”, the “probe-labelled cysteine peptide fold change” value was -0.0784.

Turning to “RPS15A_P62244_30_QVLIRPCSK (UniProt P62244)”, the “probe-labelled cysteine peptide fold change” value worked out at 0.0505.

On to “SAMHD1_Q9Y3Z3_177_QLGGGYYVFPGASHNRFEHSLGVGYLAGCLVHALGEK (UniProt Q9Y3Z3)”, for which the “probe-labelled cysteine peptide fold change” value was -0.178.

Turning to “RTF1_Q92541_599_RQCKPTIVSNSR (UniProt Q92541)”, the “probe-labelled cysteine peptide fold change” value is -0.0763.

In the case of “RTCB_Q9Y3I0_193_EHCEEYGR (UniProt Q9Y3I0)”, the “probe-labelled cysteine peptide fold change” value was -0.0531.

Regarding “RRP1_P56182_62_GLFYCMWMQDKPLLQEELGR (UniProt P56182)”, the “probe-labelled cysteine peptide fold change” value is -0.504.

Regarding “RUFY1_Q96T51_351_ICSLQEEQQQLREQNELIR (UniProt Q96T51)”, the “probe-labelled cysteine peptide fold change” value is -0.409.

Consider “RUVBL2_Q9Y230_227_FVQCPDGELQK (UniProt Q9Y230)”, for which the “probe-labelled cysteine peptide fold change” value amounted to 0.151.

As to “RUFY1_Q96T51_351_ICSLQEEQQQLR (UniProt Q96T51)”, the “probe-labelled cysteine peptide fold change” value worked out at 0.0896.

As to “RPS11_P62280_60_KCPFTGNVSIR (UniProt P62280)”, the “probe-labelled cysteine peptide fold change” value was -0.143.

As for “RUFY1_Q96T51_81_RATGNLSASCGSALR (UniProt Q96T51)”, the “probe-labelled cysteine peptide fold change” value is -0.118.

Take “RRM1_P23921_254_SAGGIGVAVSCIR (UniProt P23921)”: the “probe-labelled cysteine peptide fold change” value is 0.174.

“RPS5_P46782_155_RVNQAIWLLCTGAR (UniProt P46782)”: the “probe-labelled cysteine peptide fold change” value was -0.267.

In the case of “SAMD9_Q5K651_605_HQDEISSQCISALSLEEINGTILK (UniProt Q5K651)”, the “probe-labelled cysteine peptide fold change” value is -0.00788.
